From PubChem BioAssay AID493014 (National Center for Advancing Translational Sciences (NCATS), 2011)
This is one part of the list. Shown are side measurements of this screen, not its main read-out; they come without a call. The list favours compounds with an active or inconclusive main result. The note in brackets gives the kind of curve behind each potency; many fits are weak.

Assay: qHTS Assay to Find Inhibitors of Chronic Active B-Cell Receptor Signaling
Settings: ABC-DLBCL IkBa-CBG/CBR reporter, luminescence ratio (green luciferase fused to IkBa over red control in TMD8 lymphoma cells), 4 h
Procedure, shortened: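 Compounds up to 46 uM were incubated four hours with TMD8 cells whose green CBG68 luciferase is fused to IkappaBalpha; red CBR luminescence normalised the signal, and concentration-effect curves were fitted to fusion, red and ratio data.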

[1] = measured here: CBR red luminescence, cell number
[2] = measured here: IkBa-CBG green luminescence

| Compound | AC50 [1] | AC50 [2] |
| --- | --- | --- |
| c1ccc(-c2nc(N3CCOCC3)sc2-c2ccccc2)cc1 | 0.447 µM [rising, partial curve, poor fit] |  |
| Cc1cc(C)cc(C(=O)NC(=S)Nc2ccc(Cc3ccncc3)cc2)c1 | 20.6 µM [rising, single point] |  |
| Fc1cccc(CSc2ccc(-c3ccco3)nn2)c1 | 0.651 µM [rising, full curve, poor fit] |  |
| Cc1nn(-c2ccccc2)c(Cl)c1C(=O)NNC(=O)c1ccncc1 | 20.6 µM [falling, single point] |  |
| CCc1ccc(C(=O)COC(=O)C(CCSC)NC(=O)C23CC4CC(CC(C4)C2)C3)cc1 (centres undefined) | 7.31 µM [rising, partial curve] |  |
| CCn1c(C)nc2cc(-c3nnc(-c4c(-c5ccccc5)noc4C)o3)ccc21 | 7.08 µM [falling, partial curve, poor fit] |  |
| N#C/C(=C/c1ccncc1)c1nc2ccccc2s1 | 3.55 µM [falling, partial curve, poor fit] |  |
| CCN(CC)CCCN1C(=O)C(O)=C(C(=O)c2sc(C)nc2C)C1c1ccco1 (centres undefined) | 3.55 µM [rising, single point] |  |
| O=c1[nH]c(SCc2ccccc2)nc2c1sc1ccccc12 | 0.141 µM [rising, full curve, poor fit] |  |
| Cc1cc(NC(=O)/C=C/c2ccccc2)no1 | 29.1 µM [falling, single point] |  |
| CC(C)Oc1ccc(Nc2ncnc3ccccc23)cc1 | 2.24 µM [rising, partial curve, poor fit] |  |
| O=C(Nc1ccccc1Cl)C1CCN(S(=O)(=O)c2cccc3nonc23)CC1 | 1.58 µM [falling, partial curve, poor fit] |  |
| CCOc1c2ccc(C(=O)NCc3cc(C(F)(F)F)cc(C(F)(F)F)c3)cc2nn1C | 2.82 µM [rising, partial curve, poor fit] |  |
| CC(C)NC(=O)NC(=O)CSc1nnc(-c2c[nH]c3ccccc23)o1 | 22.4 µM [falling, partial curve, poor fit] |  |
| Cc1noc(C)c1COc1cccc(C(=O)NCc2cccc(Cl)c2)c1 | 25.1 µM [falling, single point] |  |
| O=C(/C=C/c1ccc([N+](=O)[O-])o1)NNC(=O)c1ccc(F)cc1 | 35.5 µM [falling, single point] |  |
| Cc1ccc(-n2ncc3c(=O)n(CC#N)cnc32)cc1 | 5.62 µM [rising, partial curve, poor fit] |  |
| COc1cccc(-c2coc3cc4oc(=O)c(CCC(=O)O)c(C)c4cc23)c1 | 2.51 µM [rising, partial curve, poor fit] |  |
| O=C(OCC(F)(F)F)c1cccc(COc2ccc3ccccc3c2)c1 | 1.84 µM [falling, full curve] |  |
| COc1cc(CCC(=O)OCC(=O)Nc2ccc(C)cc2Br)cc(OC)c1OC | 3.55 µM [rising, single point] |  |
| O=C(CSc1nccc(=O)[nH]1)Nc1ccc(Br)c(Cl)c1 | 6.31 µM [rising, single point] |  |

Reprinted from the results shown (3 entries):

| Compound | AC50 [1] | AC50 [2] |
| --- | --- | --- |
| O=C(/C=C/c1ccc([N+](=O)[O-])o1)NNC(=O)c1ccc(F)cc1 | 35.5 µM [falling, single point] |  |
| Cc1ccc(-n2ncc3c(=O)n(CC#N)cnc32)cc1 | 5.62 µM [rising, partial curve, poor fit] |  |
| COc1cccc(-c2coc3cc4oc(=O)c(CCC(=O)O)c(C)c4cc23)c1 | 2.51 µM [rising, partial curve, poor fit] |  |

Following part.

| Compound | AC50 [1] | AC50 [2] |
| --- | --- | --- |
| CCCCNC(=O)Nc1cc(C(=O)OC)ccc1Cl | 20.6 µM [rising, partial curve] |  |
| Cc1cccc(OCC(=O)N(Cc2ccco2)c2c(N)n(Cc3ccccc3)c(=O)[nH]c2=O)c1 | 16.4 µM [falling, partial curve, poor fit] |  |
| CN1C(=O)c2ccccc2C(C(=O)O)C1c1cccc(F)c1 (centres undefined) | 3.16 µM [rising, full curve, poor fit] |  |
| COc1cc([N+](=O)[O-])ccc1NC(=O)Nc1ccc2c(c1)OCCO2 | 2.82 µM [rising, partial curve, poor fit] |  |
| CCCc1cc(=O)n2c([nH]c3ccccc32)c1C#N | 0.651 µM [falling, full curve] |  |
| Cc1ncc(CN2CCCC(C(=O)Nc3ccc(-c4cccc(F)c4)cc3)C2)n1C (centres undefined) | 25.1 µM [falling, single point] |  |
| O/N=C(\c1ccc2c(c1)OCCO2)C1CCCCC1 | 6.51 µM [rising, partial curve, poor fit] |  |
| Cc1ccc(NC(=O)c2cc(-c3ccco3)nc3ccccc23)cc1S(=O)(=O)N1CCOCC1 | 31.6 µM [falling, single point] |  |
| O=C1c2ccc(-c3ccc(F)cc3OCc3ccccc3)cc2S(=O)(=O)c2cccc(C(=O)N3CCN(c4ncc(Cl)cc4Cl)CC3)c21 | 5.17 µM [rising, partial curve, poor fit] |  |
| Cc1ccc(NC(=O)C(C)N2CCc3ccccc3C2)cc1 (centres undefined) | 14.1 µM [rising, single point] |  |
| Cc1ccccc1C(=O)N1CCN(c2ccc(NC(=S)NC(=O)c3ccco3)cc2)CC1 | 3.98 µM [falling, partial curve, poor fit] |  |
| O=C(CSc1nc2ccccc2[nH]1)Nc1nc(-c2ccccc2)c(-c2ccccc2)o1 |  | 2.91 µM [rising, full curve, poor fit] |
| Cc1ccc(NC(=O)c2cc(=O)c3ccccc3o2)cc1S(=O)(=O)N1CCCCC1 | 14.1 µM [falling, single point] |  |
| C/C(=N/NC(=O)c1ccc(Br)o1)C(C)C | 16.4 µM [falling, single point] |  |
| Cc1cccc(C)c1NC(=O)COC(=O)c1ccccc1Nc1ccccc1 | 2.31 µM [rising, full curve, poor fit] |  |
| COC(=O)c1ccccc1NC(=O)C1CCCN(S(=O)(=O)c2ccc(F)cc2)C1 (centres undefined) | 1.84 µM [rising, partial curve, poor fit] |  |
| Cc1nc(NC(=O)c2cccs2)ccc1Br | 10 µM [falling, single point] |  |
| COc1ccc(-c2csc(NC3OC(=O)c4c3ccc(OC)c4OC)n2)cc1OC (centres undefined) | 12.6 µM [falling, partial curve, poor fit] |  |
| CCC(=O)Nc1cc2c(cc1C(C)=O)OCCO2 | 8.2 µM [falling, partial curve] | 23.1 µM [rising, partial curve, poor fit] |
| Clc1ccc(CN2C3=NCCCN3c3ccccc32)cc1 | 11.2 µM [falling, partial curve] |  |
| Cc1nn(C(=O)c2cccc([N+](=O)[O-])c2)c(C)c1Cl | 11.2 µM [rising, partial curve, poor fit] |  |

| Compound | AC50 [1] | AC50 [2] |
| --- | --- | --- |
| CC1(C(=O)Nc2ccccc2)Cc2ccccc2C(=O)O1 (centres undefined) | 35.5 µM [falling, single point] |  |
| CCCSC1=C(C#N)C(c2ccc(Cl)cc2Cl)CC(=O)N1 (centres undefined) | 20.6 µM [falling, single point] |  |
| O=C(O)c1ccc(N2CCN(C(c3ccccc3)c3ccccc3)CC2)c([N+](=O)[O-])c1 | 11.2 µM [falling, partial curve, poor fit] | 17.8 µM [rising, partial curve, poor fit] |
| Cc1ccc(-c2nc3ccccc3[nH]2)cc1NC(=O)c1sc2cc(Cl)ccc2c1Cl | 1.3 µM [rising, full curve] |  |
| Cc1cc(C)n(-c2nc(Nc3ccccc3)nc(-n3nc(C)cc3C)n2)n1 | 0.891 µM [falling, full curve, poor fit] |  |
| COC(=O)c1c(C)[nH]c(C(=O)C(C)OC(=O)C2CC(=O)N(c3ccc(C)cc3)C2)c1C (centres undefined) | 18.4 µM [falling, single point] |  |
| Nc1nnc(CC(=O)N/N=C/c2cccc(OCCOc3ccccc3)c2)s1 | 29.1 µM [falling, single point] |  |
| Cc1nc(-c2ccccc2)sc1C1(C)CC(c2ccc(OC(F)(F)F)cc2)=NO1 (centres undefined) | 25.1 µM [rising, single point] |  |
| CCN(C(=O)COC(=O)c1[nH]c(C)c(C(C)=O)c1C)C1CCS(=O)(=O)C1 (centres undefined) | 20 µM [falling, partial curve, poor fit] |  |
| CN(c1ccccc1)S(=O)(=O)c1ccc(Cl)c(C(=O)NCCc2c[nH]c3ccccc23)c1 | 25.9 µM [falling, single point] |  |
| Cc1ccc(-c2nn(-c3ccccc3)cc2C(=O)NCC(c2cccs2)N2CCOCC2)cc1 (centres undefined) | 18.4 µM [rising, single point] |  |
| N#CCSc1nc2cc(C(=O)N3CCC(C(N)=O)CC3)ccc2c2nc3ccccc3n12 | 5.01 µM [falling, partial curve] |  |
| COC(=O)C1CCN(Cc2nnc(-c3ccccc3)o2)CC1 | 10 µM [rising, partial curve, poor fit] |  |
| Cn1c(=O)c2[nH]c(Nc3ccccc3)nc2n(C)c1=O | 1.03 µM [falling, full curve] |  |
| COc1ccc(CNC(C)C23CC4CC(CC(C4)C2)C3)c(OC)c1OC (centres undefined) | 35.5 µM [falling, single point] |  |
| O/N=C(/c1ccc(Cl)cc1)C1CC1c1ccccc1 (centres undefined) | 0.447 µM [rising, full curve, poor fit] |  |
| N#CCCn1c(SCC(=O)Nc2ccc(N3CCOCC3)cc2)nc2ccccc21 | 4.11 µM [rising, full curve, poor fit] |  |
| COc1cc(C2C(C(=O)Nc3ccc(F)cc3)=C(C)Nc3nc(CCCO)nn32)cc(OC)c1OC (centres undefined) | 5.17 µM [falling, single point] |  |
| COc1ccc(NC(=O)CN(C)C(=O)c2cc3c(s2)CCC(C)C3)cc1 (centres undefined) | 14.1 µM [falling, partial curve, poor fit] |  |
| CC1(C)Cc2c(sc3ncnc(NNC(=S)NCc4ccccc4)c23)CO1 |  | 23.1 µM [falling, partial curve, poor fit] |

Individual results from above:
`Cc1ccc(-n2ncc3c(=O)n(CC#N)cnc32)cc1` – AC50 [1]: 5.62 µM [rising, partial curve, poor fit]
`CC(C)Oc1ccc(Nc2ncnc3ccccc23)cc1` – AC50 [1]: 2.24 µM [rising, partial curve, poor fit]
